# The full ranking holds about 33,000 sequences; the median of “E-score (-0.5 to 0.5)” is about -0.0014, and the highest 2% start at about 0.25. The list shows a part of the results.
# Target: T1, Cad1 (UniProt P24813)
# T1 sequence: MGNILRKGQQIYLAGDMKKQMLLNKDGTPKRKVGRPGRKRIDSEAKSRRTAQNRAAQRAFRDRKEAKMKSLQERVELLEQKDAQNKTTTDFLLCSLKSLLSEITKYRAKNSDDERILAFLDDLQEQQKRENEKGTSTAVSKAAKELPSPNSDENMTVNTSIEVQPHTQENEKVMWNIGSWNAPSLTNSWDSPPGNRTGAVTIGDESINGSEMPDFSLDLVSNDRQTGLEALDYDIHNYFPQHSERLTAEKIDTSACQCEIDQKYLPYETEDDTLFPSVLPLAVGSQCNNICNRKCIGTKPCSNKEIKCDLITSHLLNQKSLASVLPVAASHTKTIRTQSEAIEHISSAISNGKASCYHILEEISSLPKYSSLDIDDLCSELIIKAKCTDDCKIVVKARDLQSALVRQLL
# Test: PBM E-score (8-mer binding enrichment) (E-score (-0.5 to 0.5)); higher = stronger / more preferred TF binding
# Conditions: protein concentration: 100 nM; construct: GST-full length
# In short: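 Yeast transcription factors carrying a GST tag, as full-length proteins or DNA-binding domains, were produced by PURExpress in vitro transcription/translation. About 100-200 nM protein was applied to universal all-10-mer Agilent arrays, double-stranded by primer extension on fresh or once-stripped slides. Bound protein was detected with fluorescent anti-GST, and scans were normalised with masliner. The Universal PBM Analysis Suite gave each ungapped eight-base word, pooled with its reverse complement, an E-score, a modified Wilcoxon-Mann-Whitney statistic.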
row,Sequence,PBM E-score
1,ATCCGGCG,0.169
2,ATACGGAT,0.102
3,AAGATCAT,0.00621
4,CTAAGTTA,-0.0283
5,CCTCTGAC,-0.0669
6,CGAGCCAC,-0.191
7,CAACAACC,0.053
8,CGCGCAAG,0.217
9,TCCTCAGA,-0.108
10,ACATTTTG,0.133
11,ACGGTGTG,0.0119
12,CCGAATAA,0.172
13,CCACAAAG,0.0271
14,ACCCACAT,0.00823
15,GTACGCTA,0.0478
16,ACAGAAGA,0.0872
17,AGAATCCG,0.163
18,AATCTTCT,-0.118
19,TCGGGAGA,-0.0809
20,CAAGGAGG,0.0058
21,CTGTCTTA,0.0654
22,AGACACGG,0.0215
23,CGACTAGC,0.0526
24,ATGCCCCA,-0.0857

row,Sequence,PBM E-score
1,AGCCGAGA,-0.0623
2,GGCACCCC,-0.243
3,AACATCTG,-0.0437
4,CTGTGACA,0.209
5,CCGCTGCA,0.0759
6,ATCAGGAA,0.0741
7,ATAGACGC,0.119
8,CTGCGAAG,-0.2
9,AACAGAGC,-0.167
10,CAGGCCCC,-0.277
11,CATTCCGG,0.00395
12,CCAATATA,-0.0928
13,GCCATTAC,0.0311
14,AGGGCTTC,-0.114
15,ATCAAGAT,0.0653
16,GGCCGATA,-0.0403
17,ACCTATCG,0.081
18,ATGGCTTA,0.144
19,TTCACGAA,0.00862
20,ACAAGGGG,-0.219
21,TACTTTAA,-0.165
22,AAGCTAGG,-0.046
23,CAGCAATA,0.188
24,CCCCAGTC,-0.273

# Random excerpt: 4 records from the list.
row,Sequence,PBM E-score
14,AGGGCTTC,-0.114
2,ATACGGAT,0.102
23,CGACTAGC,0.0526
18,AATCTTCT,-0.118

# Continuation.

row,Sequence,PBM E-score
1,GCTATAGC,-0.23
2,AATAAGCT,0.234
3,ACCACCAT,-0.135
4,GCTTGTTA,0.0383
5,GCCCTTTA,-0.279
6,CGTCTTGC,-0.0811
7,GATTTAAA,-0.0737
8,AGGGGATG,-0.0803
9,AGATGCCG,-0.0943
10,AAGTAGGC,0.0519
11,ACGATGGA,0.042
12,GACTAGCC,-0.139
13,ACCGCGAG,-0.00282
14,TTAGTAAA,0.339
15,CGGCCCAA,-0.111
16,CGGAACCA,0.23
17,ATTGATGA,0.0891
18,CATCTTAC,0.0418
19,ACAACTAT,0.0919
20,CCCATGCA,-0.029
21,TCTATAAA,0.111
22,ATAGTCGA,0.215
23,CGGATATC,0.167
24,ACACTAGA,0.142

row,Sequence,PBM E-score
1,AGCATAGG,-0.145
2,AAACCGAG,-0.0261
3,ATGACACG,0.114
4,AGCGTCGC,0.098
5,AGGACGGA,-0.123
6,GCATAATA,0.249
7,AAGCAGGG,-0.0301
8,CCGGGCGA,-0.17
9,AGTGTAAT,0.0742
10,CACTAAAC,0.0896
11,AAACGGCG,0.17
12,ACAATTTG,-0.0159
13,AAACTGTA,0.105
14,GGTGGGGA,0.173
15,CTGTCCAC,-0.00922
16,AAATATAA,0.247
17,CCACGAGG,-0.103
18,ACTACAGC,-0.201
19,TCCGGAAA,0.252
20,CGCACCCG,0.168
21,TCGACGAA,0.12
22,GTTAGGAA,0.0362

# Source: the supplement of paper PMC3334620
